Measurements: PubChem BioAssay AID602346 (Broad Institute, 2012)
The whole screen tested about 340,000 compounds, of which about 1,200 (0.35%) were called active. Inconclusive means that the source gave no clear call. Such entries were picked first, then a sample of the others. Rule as the data show it: active = inhibition above about 50% (passing the limit was not always enough); inconclusive = no clear call, values can overlap the other calls; inactive = below about 31%.

Assay: blockers of Vif multimerization in cells – imaging, HEK293T, single point, primary screen (AID 602346)
Conditions: Vif self-association by quenched fluorescence, 24 h, at 7.49 µM, active compounds read high

Q: For `CCOc1ccccc1C1C(C(=O)OC)=CN(C)C=C1C(=O)OC`, which inhibition is on record?
A: inconclusive: 19.5%

Q: Which inhibition does the source give for `O=C(CCNC(=O)c1ccccc1)NN=Cc1ccc(Br)o1` here?
A: inconclusive: 45.1%

Q: Which inhibition does the source give for `CCOC(=O)C(Oc1ccc(=O)[nH]n1)C(C)=O` (stereo not given) here?
A: inconclusive: 2.01%

Q: For `COc1ccc2oc(C(=O)Nc3nc4ccc(S(C)(=O)=O)cc4s3)c(C)c2c1`, which inhibition is on record?
A: inconclusive: 43.4%

Q: With `COc1ccc(N2CCN(CCCNC(=O)C(=O)c3c(C)n(C)c4ccccc34)CC2)cc1` as the compound, how does the inhibition read?
A: active: 53.5%

Q: For `CC(NC(=O)COC(=O)c1ccc(Br)o1)c1ccccc1` (stereo not given), which inhibition is on record?
A: inactive: 21.6%

Q: For `CCCCN(Cc1cc2cc(OC)ccc2[nH]c1=O)S(=O)(=O)c1ccc(C)cc1`, which inhibition is on record?
A: inactive: -4.66%

Q: For `CCOc1ccc(-c2c(C(=O)N/N=C/c3cccs3)nnn2-c2nonc2N)cc1`, which inhibition is on record?
A: active: 82.3%

Q: For `Cc1ccc(NC(=O)CCCN2C(=O)/C(=C/C=C/c3ccccc3)SC2=S)cc1`, which inhibition is on record?
A: inactive: 2.6%

Q: Which inhibition does the source give for `COC(=O)/C=c1\[nH]c2nnc(C)n2c1=O` here?
A: inconclusive: 28.2%

Q: For `CCOc1ccc(Nc2nc(N)nc(CCl)n2)cc1`, which inhibition is on record?
A: inconclusive: 8.89%

Q: For `Cc1nc(-c2ccc(Cl)cc2)sc1C(=O)CBr`, which inhibition is on record?
A: inconclusive: 15.4%

Q: With `Cc1cc(C)c(NC(=S)NC(NC(=O)c2ccccc2)C(Cl)(Cl)Cl)c(C)c1` (stereo not given) as the compound, how does the inhibition read?
A: inactive: 1.76%

Q: With `CCc1ccc(-c2nc(SCC(=O)c3c(N)n(C)c(=O)n(C)c3=O)n[nH]2)cc1` as the compound, how does the inhibition read?
A: inconclusive: 41.7%

Q: With `O=S(=O)(Oc1ccccc1)c1ccc(Cl)c(Cl)c1` as the compound, how does the inhibition read?
A: inconclusive: 43.4%

Q: With `Cc1nnc(SC(C)C(=O)Nc2sc3c(c2C#N)CCCC3)[nH]c1=O` (stereo not given) as the compound, how does the inhibition read?
A: active: 53%

Q: Which inhibition does the source give for `COc1cc(N=Nc2cccc(S(N)(=O)=O)c2)c2ccccc2c1N` here?
A: active: 53.1%

Q: For `Cc1noc(NC(=O)c2ccc(Cl)cc2)c1Cl`, which inhibition is on record?
A: inactive: -2.36%

Q: Which inhibition does the source give for `COc1cccc(-c2csc(N3CCN(CC(=O)Nc4ccc5c(c4)OCO5)CC3)n2)c1` here?
A: inconclusive: 48.8%

Q: For `CN(CCOc1ccccc1)C(=O)c1cc([N+](=O)[O-])ccc1N1CCOCC1`, which inhibition is on record?
A: inactive: -4.63%

Q: With `CCn1c(SCc2nc(-c3cccs3)no2)nnc1-c1c[nH]c2ccccc12` as the compound, how does the inhibition read?
A: inconclusive: 48.3%

Q: Which inhibition does the source give for `CCN(CC)CCCNc1nc(N)c([N+](=O)[O-])c(NCCO)n1` here?
A: inconclusive: 32.4%

Q: For `NC(=O)CCCC1=NS(=O)(=O)c2ccccc2N1`, which inhibition is on record?
A: inconclusive: 26.5%

Q: With `CCCN1C(=O)C2(C(C(=O)c3ccc(C)o3)=C(O)C(=O)N2CCCOC)c2ccccc21` (stereo not given) as the compound, how does the inhibition read?
A: inconclusive: 24%

Q: For `O=S(=O)(NCCc1ccc2c(c1)OCCO2)c1cccs1`, which inhibition is on record?
A: inconclusive: 30.9%

Q: For `O=C(Nc1cccc(NC(=O)c2ccco2)n1)c1ccco1`, which inhibition is on record?
A: inconclusive: 25.9%

Q: For `Cc1cc(C)nc(NC(=O)c2c(C(=O)O)noc2C)n1`, which inhibition is on record?
A: inconclusive: 29.4%

Q: For `COc1ccc(N(C(=O)c2snc(C(N)=O)c2N)C(C(=O)NC2CCCC2)c2cc(OC)ccc2OC)c(OC)c1` (stereo not given), which inhibition is on record?
A: inconclusive: 29.5%

Q: With `CCCCC(=O)Nc1nnc(/C=C/c2ccc(OC)cc2)s1` as the compound, how does the inhibition read?
A: inconclusive: 26.1%

Q: For `COC(=O)c1[nH]c2ccc(C)cc2c1NC(=O)CN1CCCC(C)(C)C1`, which inhibition is on record?
A: inconclusive: 23.8%

Q: With `COc1cc(C(=O)NCCc2cn3ccc(C)cc3n2)cc(OC)c1OC` as the compound, how does the inhibition read?
A: active: 96.4%

Q: For `CC(C)CN(CC(C)C)C(=O)CCCC(=O)N(CC(C)C)CC(C)C`, which inhibition is on record?
A: inactive: 3.91%

Q: Which inhibition does the source give for `COc1ccc(OC)c(NC(=O)COC(=O)Cn2nnc(-c3ccccc3)n2)c1` here?
A: inactive: -2.82%

Q: For `CC1(C(=O)NS(=O)(=O)c2ccc(C#N)cc2)CCN1C(=O)Cc1ccc(-c2ccccc2)cc1` (stereo not given), which inhibition is on record?
A: inactive: 7.36%

Q: Which inhibition does the source give for `CCCCC(=O)OCCNC(=O)c1cc2ccccc2oc1=O` here?
A: inactive: 5.7%

Q: For `Cc1nn(Cc2ccccc2)c(Cl)c1/C=C/C(=O)OC(C(=O)NC(N)=O)C(C)C` (stereo not given), which inhibition is on record?
A: inconclusive: 28.9%

Q: With `O=C1CC(c2ccccc2)CC(O)=C1C=NCC1CCCO1` (stereo not given) as the compound, how does the inhibition read?
A: inactive: 11.1%

Q: Which inhibition does the source give for `COc1ccc(CNC(=O)CN2C(=O)NC(c3ccccc3)(c3ccccc3)C2=O)cc1` here?
A: active: 110%

Q: Which inhibition does the source give for `O=C(CSc1nc2ccccc2c(=O)n1-c1ccccc1)N1CCc2ccccc2C1` here?
A: inactive: -4.92%

Q: Which inhibition does the source give for `Cn1nnnc1SCC(=O)NCCCc1ccccc1` here?
A: inconclusive: 45.3%

Q: For `CC(C)C1(CCNC(=O)c2cccs2)CCOC(C)(C)C1` (stereo not given), which inhibition is on record?
A: inconclusive: 37.2%

Q: Which inhibition does the source give for `Cc1c(Br)c([N+](=O)[O-])nn1CC(=O)NCc1cccs1` here?
A: inconclusive: 28.8%

Q: For `O=C(NCc1cccnc1)/C(=C/c1ccc(-c2cccc(C(F)(F)F)c2)o1)NC(=O)c1ccccc1`, which inhibition is on record?
A: inactive: 6.86%

Q: With `O=S1(=O)C=C(Oc2ccc(F)cc2)c2ccccc21` as the compound, how does the inhibition read?
A: inconclusive: 23.7%

Q: Which inhibition does the source give for `CC(NC(=O)COC(=O)c1cccc(S(=O)(=O)N2CCCC2)c1)c1ccccc1` (stereo not given) here?
A: inconclusive: 42.8%

Q: With `CCCOc1ccc(C(O)(CCC)CCN2CCCCC2)cc1` (stereo not given) as the compound, how does the inhibition read?
A: inconclusive: 47.2%

Q: For `O=C(NCCc1ccc(OC(F)F)cc1)C1CC(=O)N(c2ccc3c(c2)OCCO3)C1` (stereo not given), which inhibition is on record?
A: inconclusive: 40.1%

Q: With `CC1CCC(NC(=O)CC(NC(N)=O)c2ccccc2Cl)CC1` (stereo not given) as the compound, how does the inhibition read?
A: inconclusive: 31.4%

Q: Which inhibition does the source give for `CCc1nnc(NC(=O)CSc2ccc(-c3ccc(-n4cccn4)cc3)nn2)s1` here?
A: inconclusive: 18.6%

Q: Which inhibition does the source give for `COC(=O)C/C=N/N=C1/NC(=O)/C(=C/C(=O)O)S1` here?
A: inconclusive: 28.9%

Q: With `CCC(C)NC(=O)c1cnn2c(C)c3c(nc12)CCCC3` (stereo not given) as the compound, how does the inhibition read?
A: inconclusive: 36.7%

Q: Which inhibition does the source give for `COc1cc2oc(=O)cc(C)c2c(OC)c1OC` here?
A: inconclusive: 19%

Q: For `S=C(NCc1ccc(Cl)c(Cl)c1)NCc1ccco1`, which inhibition is on record?
A: inconclusive: 26.2%

Q: With `CCCCC(C(=O)NCCC(C)C)N(CCCN1CCOCC1)C(=O)c1snc(C(N)=O)c1N` (stereo not given) as the compound, how does the inhibition read?
A: inconclusive: 31.2%

Q: With `Cc1ccccc1OCc1nnc(SCC(=O)Nc2ccc3c(c2)OCO3)n1C` as the compound, how does the inhibition read?
A: inconclusive: 28.6%

Q: For `Cc1nn(CCCC(=O)N2CCc3ccccc3C2)c(=O)c2cc3sccc3n12`, which inhibition is on record?
A: active: 84.6%

Q: With `COCC1CCN(C(=O)c2ccc3oc(C(C)C)nc3c2)C1` (stereo not given) as the compound, how does the inhibition read?
A: inconclusive: 29.1%

Q: With `O=C1OC(Nc2ccc(Cl)cn2)c2ccccc21` (stereo not given) as the compound, how does the inhibition read?
A: inconclusive: 31%

Q: With `O=C(Nc1ccc2nc3n(c(=O)c2c1)CCCCC3)C(=O)N1CCN(c2ccccc2F)CC1` as the compound, how does the inhibition read?
A: inconclusive: 29.1%

Q: With `COc1ccc(NS(=O)(=O)c2ccc(N3CCCCC3)c(NC(=O)C(C)NC(N)=O)c2)cc1` (stereo not given) as the compound, how does the inhibition read?
A: inconclusive: 37.4%

Q: With `Cc1ccc(/C=N/NC(=O)Cn2nnc(N)n2)cc1` as the compound, how does the inhibition read?
A: inactive: 23.6%

Q: Which inhibition does the source give for `COc1ccc(CC(=O)Nc2cccc(C(C)=O)c2)cc1S(=O)(=O)N1CCOCC1` here?
A: inconclusive: 43.6%

Q: For `CCCN1C(=O)/C(=C/c2ccc(N3CCCC3)c(C)c2)NC1=S`, which inhibition is on record?
A: active: 147%

Q: With `NS(=O)(=O)c1ccc(CCNC(=O)C2CCN(C(=O)Nc3ccccc3)CC2)cc1` as the compound, how does the inhibition read?
A: active: 55%

Q: For `COC(=O)C1CCN(CC(=O)Nc2ccc(OC)c(Cl)c2)CC1`, which inhibition is on record?
A: inconclusive: 48.9%

Q: Which inhibition does the source give for `COc1ccccc1N(CC(=O)Nc1ccc(C)cc1Cl)S(=O)(=O)c1cccs1` here?
A: inconclusive: 26.6%

Q: For `CC1=C(C(=O)Nc2ccccc2)C(c2ccncc2)C(C#N)=C(SCC(=O)NC(C)C)N1` (stereo not given), which inhibition is on record?
A: inconclusive: 27.3%

Q: For `CCOC1=C2[C@@H](CN(S(=O)(=O)c3ccc(C)cc3)[C@H]2c2ccccc2F)[C@H]2C(=O)N(c3ccccc3)C(=O)[C@H]2C1`, which inhibition is on record?
A: inconclusive: 31.1%

Q: With `CCCc1ccc2oc(C(=O)N(Cc3nccn3C)C(C)C)c(C)c2c1` as the compound, how does the inhibition read?
A: inactive: -4.51%

Q: With `COc1cccc(-c2nc(NCc3ccco3)c3ccccc3n2)c1O` as the compound, how does the inhibition read?
A: inactive: -12.1%

Q: With `Cc1nc(SCC(=O)c2ccc(F)c(F)c2)[nH]c(=O)c1Oc1ccc(F)cc1` as the compound, how does the inhibition read?
A: inconclusive: 32.8%

Q: For `Cc1ncc(C(=O)O)c(C(=O)O)c1N`, which inhibition is on record?
A: active: 61.9%

Q: Which inhibition does the source give for `CC(CCC(=O)O)C1CC[C@@]2(C)C3C(=O)CC4C(C)(C)C(O)CC[C@]4(C)C3C(=O)C[C@]12C` (stereo not given in full) here?
A: inconclusive: 39.7%

Q: For `COc1cc(OC)c(OC)cc1/C=C1\CC(C)C/C(=C\c2cc(OC)c(OC)cc2OC)C1=O` (stereo not given), which inhibition is on record?
A: inactive: -15.2%

Q: Which inhibition does the source give for `O=S(=O)(Nn1cnnc1)c1ccccc1` here?
A: inconclusive: 41.2%

Q: Which inhibition does the source give for `O=C(c1ccco1)N1CCN(C(=O)N2c3ccccc3Sc3ccccc32)CC1` here?
A: inconclusive: 42.2%

Q: For `O=C(Nc1nc(-c2ccccn2)cs1)C1CCCC1`, which inhibition is on record?
A: inactive: 2.89%

Q: With `Cc1ccccc1-n1ncc2c1CC(C)(C)CC2NC(=O)C1CCC1` (stereo not given) as the compound, how does the inhibition read?
A: inconclusive: 33.5%

Q: With `O=C(Nc1cccc(C(F)(F)F)c1)c1ccc(-n2cncn2)nc1` as the compound, how does the inhibition read?
A: inactive: -1.31%

Q: For `CCOc1ccc(N(CC(=O)N2CCCCCC2)S(C)(=O)=O)cc1`, which inhibition is on record?
A: inconclusive: 21.6%

Q: With `Cc1ccc(/C=N/Nc2nc3ccccc3s2)o1` as the compound, how does the inhibition read?
A: inactive: 0.882%

Q: Which inhibition does the source give for `Cc1cc(C(=O)NN)c(C)o1` here?
A: inactive: -8.09%

Q: With `CCOC(=O)c1c(CSc2ccsc2)n(C)c2cc(Br)c(O)c(CN(C)C)c12` as the compound, how does the inhibition read?
A: inactive: -4.89%

Q: With `O=C(Nc1ccc2c(c1)OCO2)c1ccc2nc[nH]c2c1` as the compound, how does the inhibition read?
A: inactive: 4.66%

Q: With `CCCCOc1cccc2c(=O)n(CC(=O)Nc3ccc4c(c3)OCCO4)ccc12` as the compound, how does the inhibition read?
A: active: 73.3%

Q: With `CCN(CC)CCn1c2c(c(SCC(=O)Nc3cccc(C(C)=O)c3)nc1=O)CCCC2` as the compound, how does the inhibition read?
A: inconclusive: 42%

Q: With `Cn1nnnc1Sc1ncnc2scc(-c3ccc(F)cc3)c12` as the compound, how does the inhibition read?
A: active: 52.3%

Q: For `COc1ccc(OCc2cccc(C(=O)NN)c2)cc1`, which inhibition is on record?
A: inactive: 1.07%

Q: With `Nc1c(C(=O)Nc2ccc3c(c2)OCCO3)nnn1Cc1cccc(F)c1` as the compound, how does the inhibition read?
A: inactive: 19.5%

Q: For `CC(C)c1c(O)nc(SCC(=O)N2CCOCC2)[nH]c1=O`, which inhibition is on record?
A: inconclusive: 41.2%
